Among the data in doi:10.1101/2021.06.17.448807 are binding values, retold here.

Amino acid sequences for entries named in this document (tags omitted).
UniProt O70133: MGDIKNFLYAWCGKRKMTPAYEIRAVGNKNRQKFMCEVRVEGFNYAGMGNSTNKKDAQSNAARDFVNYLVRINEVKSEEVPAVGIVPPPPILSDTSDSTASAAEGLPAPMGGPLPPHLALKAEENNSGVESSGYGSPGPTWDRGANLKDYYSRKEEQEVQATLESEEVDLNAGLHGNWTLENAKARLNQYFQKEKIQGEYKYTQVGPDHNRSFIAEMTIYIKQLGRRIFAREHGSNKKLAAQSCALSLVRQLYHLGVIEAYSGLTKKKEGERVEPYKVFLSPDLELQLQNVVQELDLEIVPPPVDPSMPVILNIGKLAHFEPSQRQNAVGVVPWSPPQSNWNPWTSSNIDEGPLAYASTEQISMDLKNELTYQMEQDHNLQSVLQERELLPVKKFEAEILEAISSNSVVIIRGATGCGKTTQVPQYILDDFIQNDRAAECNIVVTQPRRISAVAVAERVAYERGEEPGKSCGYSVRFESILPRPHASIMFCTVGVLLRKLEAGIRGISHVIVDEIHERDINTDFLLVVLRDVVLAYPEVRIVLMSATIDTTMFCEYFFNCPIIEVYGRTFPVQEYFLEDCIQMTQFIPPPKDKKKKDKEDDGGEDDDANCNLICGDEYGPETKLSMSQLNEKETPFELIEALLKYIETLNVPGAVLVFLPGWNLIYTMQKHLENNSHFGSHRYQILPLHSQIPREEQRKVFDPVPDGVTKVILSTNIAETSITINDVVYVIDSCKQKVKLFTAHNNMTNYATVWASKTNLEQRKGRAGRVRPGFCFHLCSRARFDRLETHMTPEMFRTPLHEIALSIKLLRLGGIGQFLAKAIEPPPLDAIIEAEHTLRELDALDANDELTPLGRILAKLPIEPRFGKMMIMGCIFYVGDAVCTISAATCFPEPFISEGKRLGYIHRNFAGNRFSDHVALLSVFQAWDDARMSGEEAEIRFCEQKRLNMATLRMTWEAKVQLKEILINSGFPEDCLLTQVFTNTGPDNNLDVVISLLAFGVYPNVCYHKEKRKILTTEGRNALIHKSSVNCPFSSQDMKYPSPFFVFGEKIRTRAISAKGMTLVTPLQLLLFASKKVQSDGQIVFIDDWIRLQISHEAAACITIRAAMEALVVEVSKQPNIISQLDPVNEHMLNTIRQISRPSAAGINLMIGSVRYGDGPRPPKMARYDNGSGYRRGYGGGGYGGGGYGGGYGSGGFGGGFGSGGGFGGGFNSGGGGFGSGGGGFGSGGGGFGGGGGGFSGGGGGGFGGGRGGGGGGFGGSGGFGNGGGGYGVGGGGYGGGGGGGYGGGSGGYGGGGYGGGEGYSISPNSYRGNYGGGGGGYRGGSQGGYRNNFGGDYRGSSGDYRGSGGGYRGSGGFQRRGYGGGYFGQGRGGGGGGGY
UniProt Q61584: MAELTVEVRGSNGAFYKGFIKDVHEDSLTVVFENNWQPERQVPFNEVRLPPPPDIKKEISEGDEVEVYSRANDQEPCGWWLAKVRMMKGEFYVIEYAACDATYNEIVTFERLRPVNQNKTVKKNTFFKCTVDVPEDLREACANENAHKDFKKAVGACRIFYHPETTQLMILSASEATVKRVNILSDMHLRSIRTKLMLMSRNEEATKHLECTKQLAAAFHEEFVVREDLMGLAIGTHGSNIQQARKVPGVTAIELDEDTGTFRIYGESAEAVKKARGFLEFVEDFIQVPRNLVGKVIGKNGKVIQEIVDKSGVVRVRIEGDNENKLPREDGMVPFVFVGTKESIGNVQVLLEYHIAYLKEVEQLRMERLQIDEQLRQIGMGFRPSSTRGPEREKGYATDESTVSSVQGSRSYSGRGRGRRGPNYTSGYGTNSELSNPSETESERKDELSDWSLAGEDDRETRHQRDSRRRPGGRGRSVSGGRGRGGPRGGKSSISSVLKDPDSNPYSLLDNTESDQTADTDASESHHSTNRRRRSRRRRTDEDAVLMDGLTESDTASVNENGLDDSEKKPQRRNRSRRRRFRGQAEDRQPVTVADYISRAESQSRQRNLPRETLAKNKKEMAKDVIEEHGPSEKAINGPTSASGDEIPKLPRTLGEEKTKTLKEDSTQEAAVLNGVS

This test deals with T1, Transcription factor-like 5 (mouse (endogenous in testis)) (UniProt Q32NY8).
T1 sequence: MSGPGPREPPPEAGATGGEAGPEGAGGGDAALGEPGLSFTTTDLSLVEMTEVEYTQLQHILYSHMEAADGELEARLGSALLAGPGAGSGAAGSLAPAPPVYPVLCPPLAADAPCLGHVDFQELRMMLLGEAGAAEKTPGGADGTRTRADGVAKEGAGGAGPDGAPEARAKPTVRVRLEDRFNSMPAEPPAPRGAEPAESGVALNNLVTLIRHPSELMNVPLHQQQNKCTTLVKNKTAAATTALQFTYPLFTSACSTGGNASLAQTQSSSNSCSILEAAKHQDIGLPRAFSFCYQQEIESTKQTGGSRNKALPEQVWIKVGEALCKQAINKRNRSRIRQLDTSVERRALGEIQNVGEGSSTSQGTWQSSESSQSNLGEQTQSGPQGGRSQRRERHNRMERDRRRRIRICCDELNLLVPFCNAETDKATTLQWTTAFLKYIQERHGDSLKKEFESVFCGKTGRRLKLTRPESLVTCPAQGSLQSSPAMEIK
Description: co-IP.

Results are given in words; binding and its absence hold for the method and conditions named. Binding seen in cells or lysates may run through a third protein. Some results given as binding are weak or reduced against the parent protein; the word gives no strength.

For the substance “DExH-box helicase 9 (from UniProt O70133 1-1380)”, the binding entry was “binds”.

With “fragile-X mental retardation syndrome-related protein 1 (from UniProt Q61584 1-677)”, the binding result is reported as “binds”.
